Values after ≈ are worked out from the molar mass of the structure shown.
Tested on: Candida albicans ATCC 90028
Assay: MIC, in vitro micro diffusion method
Format: cell-based
Details: ATCC90028, C. albicans ATCC 90028
Source text: In this part, the spiropyrrolidines 4a–m were selected to be screening for their antimicrobial activities, using in vitro micro diffusion method, against multiple bacterial strains (Staphylocoocus aureus ATCC 25923, Escherichia coli ATCC 25922, Pseudomonas aeruginosa ATCC 27950, Micrococcus luteus NCIMB 8166), and two pathogenic reference yeasts namely Candida albicans ATCC 90028 and Candida kreusei ATCC 6258.

C[C@@H]1[C@H](O)[C@@H](C)/C=C/C=C/C=C/C=C/C=C/C=C/C=C/[C@H](O[C@@H]2O[C@H](C)[C@@H](O)[C@H](N)[C@@H]2O)C[C@@H]2O[C@](O)(C[C@@H](O)C[C@@H](O)[C@H](O)CC[C@@H](O)C[C@@H](O)CC(=O)O[C@H]1C)C[C@H](O)[C@H]2C(=O)O [Amphotericin B, reference compound]
MIC: 31.2 µg/mL (≈ 33.8 µM)

Reference: PMC10650415, “Synthesis of Tetracyclic Spirooxindolepyrrolidine-Engrafted Hydantoin Scaffolds: Crystallographic Analysis, Molecular Docking Studies and Evaluation of Their Antimicrobial, Anti-Inflammatory and Analgesic Activities” (Molecules, 2023)
